# Some of the results follow.
# B1: SP15308B-bot-339-22-339 (Bacteroides ovatus) (protein)
# chain: NEWEDEQYEQYVSFKAPIASGSDGVTTIYVRYKDNGKVTYQLPIIVSGSTVNSQDRDIHIAVDKDTLKTLNIERFSLYRPELWYTEMEEDKYEFPETVHIPAGSCVELLNIDFNLQDIDMLEKWVLPLTIVDDGSYAYQSHPRKNYAKALLKVVPFNNYSGSYTASSMKVYTYINGKPDTNARTTDKRTGYVVDNNSIFFYAGLINEDMDKDMRKKYKINVHFKEDGTLDMKQDDPSNEMEFELIGTPTYSSTSVMDATRPYLERRYVQIMFEYDFQDFTYGGSGTEVIPIKYRVAGSMTLLRNINTQIPDEDQQIEW
# Legend:
# Test in all cases: glycan array binding signal (z-score within array); higher = stronger binding
# Conditions in all cases: glycan notation: IUPAC condensed, linker removed
# [1] = biological target: Gal(b1-4)GalNAc(b1-3)[Fuc(a1-2)]Gal(b1-4)GlcNAc
# In short: (§1)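 Negative Z-scores can be read as non-binding. The Z-score is calculated within each array and then averaged across arrays of one protein sequence at different concentrations or buffers and across linkers. Arrays, 3228 in all, were curated from the Consortium for Functional Glycomics database and kept only where the protein sequence was available.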
# Gal(b1-4)Glc = biological target: Gal(b1-4)Glc
# In short: as §1
# Gal(b1-4)Glc6S = biological target: Gal(b1-4)Glc6S
# In short: as §1
# Gal(b1-4)GlcNAc = biological target: Gal(b1-4)GlcNAc
# In short: as §1
# [2] = biological target: Gal(b1-4)GlcNAc(a1-6)Gal(b1-4)GlcNAc
# In short: as §1
# Gal(b1-4)GlcNAc(b1-2)Man = biological target: Gal(b1-4)GlcNAc(b1-2)Man
# In short: as §1
# [3] = biological target: Gal(b1-4)GlcNAc(b1-2)Man(a1-3)Man(b1-4)GlcNAc(b1-4)GlcNAc
# In short: as §1
# [4] = biological target: Gal(b1-4)GlcNAc(b1-2)Man(a1-3)[Gal(b1-4)GlcNAc(b1-2)Man(a1-6)]Man(b1-4)GlcNAc(b1-4)GlcNAc
# In short: as §1
# [5] = biological target: Gal(b1-4)GlcNAc(b1-2)Man(a1-3)[Gal(b1-4)GlcNAc(b1-2)Man(a1-6)]Man(b1-4)GlcNAc(b1-4)[Fuc(a1-6)]GlcNAc
# In short: as §1
# [6] = biological target: Gal(b1-4)GlcNAc(b1-2)Man(a1-3)[Gal(b1-4)GlcNAc(b1-2)Man(a1-6)][Gal(b1-4)GlcNAc(b1-4)]Man(b1-4)GlcNAc(b1-4)[Fuc(a1-6)]GlcNAc
# In short: as §1
# [7] = biological target: Gal(b1-4)GlcNAc(b1-2)Man(a1-3)[Gal(b1-4)GlcNAc(b1-2)Man(a1-6)][GlcNAc(b1-4)]Man(b1-4)GlcNAc(b1-4)[Fuc(a1-6)]GlcNAc
# In short: as §1
# [8] = biological target: Gal(b1-4)GlcNAc(b1-2)Man(a1-3)[GlcNAc(b1-2)Man(a1-6)]Man(b1-4)GlcNAc(b1-4)GlcNAc
# In short: as §1
# [9] = biological target: Gal(b1-4)GlcNAc(b1-2)Man(a1-3)[GlcNAc(b1-4)][Gal(b1-4)GlcNAc(b1-2)Man(a1-6)]Man(b1-4)GlcNAc(b1-4)GlcNAc
# In short: as §1
# [10] = biological target: Gal(b1-4)GlcNAc(b1-2)Man(a1-3)[Man(a1-6)]Man(b1-4)GlcNAc(b1-4)GlcNAc
# In short: as §1
# [11] = biological target: Gal(b1-4)GlcNAc(b1-2)Man(a1-6)Man(b1-4)GlcNAc(b1-4)GlcNAc
# In short: as §1
# [12] = biological target: Gal(b1-4)GlcNAc(b1-2)Man(a1-6)[GlcNAc(b1-2)Man(a1-3)]Man(b1-4)GlcNAc(b1-4)GlcNAc
# In short: as §1
# [13] = biological target: Gal(b1-4)GlcNAc(b1-2)Man(a1-6)[Man(a1-3)]Man(b1-4)GlcNAc(b1-4)GlcNAc
# In short: as §1
# [14] = biological target: Gal(b1-4)GlcNAc(b1-2)[Gal(b1-4)GlcNAc(b1-4)]Man(a1-3)[Gal(b1-4)GlcNAc(b1-2)Man(a1-6)]Man(b1-4)GlcNAc(b1-4)GlcNAc
# In short: as §1
# [15] = biological target: Gal(b1-4)GlcNAc(b1-2)[Gal(b1-4)GlcNAc(b1-4)]Man(a1-3)[Gal(b1-4)GlcNAc(b1-2)[Gal(b1-4)GlcNAc(b1-6)]Man(a1-6)]Man(b1-4)GlcNAc(b1-4)GlcNAc
# In short: as §1
# [16] = biological target: Gal(b1-4)GlcNAc(b1-2)[Gal(b1-4)GlcNAc(b1-4)]Man(a1-3)[GlcNAc(b1-4)][Gal(b1-4)GlcNAc(b1-2)Man(a1-6)]Man(b1-4)GlcNAc(b1-4)GlcNAc
# In short: as §1
# [17] = biological target: Gal(b1-4)GlcNAc(b1-2)[Gal(b1-4)GlcNAc(b1-4)]Man(a1-3)[GlcNAc(b1-4)][Gal(b1-4)GlcNAc(b1-2)[Gal(b1-4)GlcNAc(b1-6)]Man(a1-6)]Man(b1-4)GlcNAc(b1-4)GlcNAc
# In short: as §1
# [18] = biological target: Gal(b1-4)GlcNAc(b1-2)[Gal(b1-4)GlcNAc(b1-6)]Man(a1-6)[Gal(b1-4)GlcNAc(b1-2)Man(a1-3)]Man(b1-4)GlcNAc(b1-4)GlcNAc
# In short: as §1
# [19] = biological target: Gal(b1-4)GlcNAc(b1-2)[Gal(b1-4)GlcNAc(b1-6)]Man(a1-6)[Gal(b1-4)GlcNAc(b1-2)Man(a1-3)]Man(b1-4)GlcNAc(b1-4)[Fuc(a1-6)]GlcNAc
# In short: as §1
# [20] = biological target: Gal(b1-4)GlcNAc(b1-2)[Gal(b1-4)GlcNAc(b1-6)]Man(a1-6)[GlcNAc(b1-4)][Gal(b1-4)GlcNAc(b1-2)Man(a1-3)]Man(b1-4)GlcNAc(b1-4)GlcNAc
# In short: as §1
# [21] = biological target: Gal(b1-4)GlcNAc(b1-2)[Gal(b1-4)GlcNAc(b1-6)]Man(a1-6)[GlcNAc(b1-4)][Gal(b1-4)GlcNAc(b1-2)[Gal(b1-4)GlcNAc(b1-4)]Man(a1-3)]Man(b1-4)GlcNAc(b1-4)[Fuc(a1-6)]GlcNAc
# In short: as §1
# [22] = biological target: Gal(b1-4)GlcNAc(b1-3)Gal(b1-3)GalNAc
# In short: as §1
# [23] = biological target: Gal(b1-4)GlcNAc(b1-3)Gal(b1-3)GlcNAc
# In short: as §1
# [24] = biological target: Gal(b1-4)GlcNAc(b1-3)Gal(b1-4)Glc
# In short: as §1
# [25] = biological target: Gal(b1-4)GlcNAc(b1-3)Gal(b1-4)GlcNAc
# In short: as §1
# [26] = biological target: Gal(b1-4)GlcNAc(b1-3)Gal(b1-4)GlcNAc(b1-2)Man(a1-3)[Gal(b1-4)GlcNAc(b1-3)Gal(b1-4)GlcNAc(b1-2)Man(a1-6)]Man(b1-4)GlcNAc(b1-4)GlcNAc
# In short: as §1
# [27] = biological target: Gal(b1-4)GlcNAc(b1-3)Gal(b1-4)GlcNAc(b1-2)Man(a1-3)[Gal(b1-4)GlcNAc(b1-3)Gal(b1-4)GlcNAc(b1-2)Man(a1-6)]Man(b1-4)GlcNAc(b1-4)[Fuc(a1-6)]GlcNAc
# In short: as §1
# [28] = biological target: Gal(b1-4)GlcNAc(b1-3)Gal(b1-4)GlcNAc(b1-2)[Gal(b1-4)GlcNAc(b1-3)Gal(b1-4)GlcNAc(b1-6)]Man(a1-6)[Gal(b1-4)GlcNAc(b1-3)Gal(b1-4)GlcNAc(b1-2)Man(a1-3)]Man(b1-4)GlcNAc(b1-4)GlcNAc
# In short: as §1
# [29] = biological target: Gal(b1-4)GlcNAc(b1-3)Gal(b1-4)GlcNAc(b1-2)[Gal(b1-4)GlcNAc(b1-3)Gal(b1-4)GlcNAc(b1-6)]Man(a1-6)[Gal(b1-4)GlcNAc(b1-3)Gal(b1-4)GlcNAc(b1-2)Man(a1-3)]Man(b1-4)GlcNAc(b1-4)[Fuc(a1-6)]GlcNAc
# In short: as §1
# [30] = biological target: Gal(b1-4)GlcNAc(b1-3)Gal(b1-4)GlcNAc(b1-3)Gal(b1-4)GlcNAc
# In short: as §1
# [31] = biological target: Gal(b1-4)GlcNAc(b1-3)Gal(b1-4)GlcNAc(b1-3)Gal(b1-4)GlcNAc(b1-2)Man(a1-3)[Gal(b1-4)GlcNAc(b1-3)Gal(b1-4)GlcNAc(b1-3)Gal(b1-4)GlcNAc(b1-2)Man(a1-6)]Man(b1-4)GlcNAc(b1-4)GlcNAc
# In short: as §1
# [32] = biological target: Gal(b1-4)GlcNAc(b1-3)Gal(b1-4)GlcNAc(b1-3)Gal(b1-4)GlcNAc(b1-2)Man(a1-3)[Gal(b1-4)GlcNAc(b1-3)Gal(b1-4)GlcNAc(b1-3)Gal(b1-4)GlcNAc(b1-2)Man(a1-6)]Man(b1-4)GlcNAc(b1-4)[Fuc(a1-6)]GlcNAc
# In short: as §1
# [33] = biological target: Gal(b1-4)GlcNAc(b1-3)Gal(b1-4)GlcNAc(b1-3)Gal(b1-4)GlcNAc(b1-2)[Gal(b1-4)GlcNAc(b1-3)Gal(b1-4)GlcNAc(b1-3)Gal(b1-4)GlcNAc(b1-6)]Man(a1-6)[Gal(b1-4)GlcNAc(b1-3)Gal(b1-4)GlcNAc(b1-3)Gal(b1-4)GlcNAc(b1-2)Man(a1-3)]Man(b1-4)GlcNAc(b1-4)[Fuc(a1-6)]GlcNAc
# In short: as §1
binder,measurement,setting,value
B1,glycan array binding signal (z-score),[1],0.059
same,glycan array binding signal (z-score),Gal(b1-4)Glc,0.03
same,glycan array binding signal (z-score),Gal(b1-4)Glc6S,0.058
same,glycan array binding signal (z-score),Gal(b1-4)GlcNAc,-0.108
same,glycan array binding signal (z-score),[2],-0.061
same,glycan array binding signal (z-score),Gal(b1-4)GlcNAc(b1-2)Man,-0.404
same,glycan array binding signal (z-score),[3],0.131
same,glycan array binding signal (z-score),[4],-0.534
same,glycan array binding signal (z-score),[5],0.069
same,glycan array binding signal (z-score),[6],-0.002
same,glycan array binding signal (z-score),[7],0.294
same,glycan array binding signal (z-score),[8],0.112
same,glycan array binding signal (z-score),[9],-0.757
same,glycan array binding signal (z-score),[10],0.022
same,glycan array binding signal (z-score),[11],-0.281
same,glycan array binding signal (z-score),[12],-0.154
same,glycan array binding signal (z-score),[13],-0.11
same,glycan array binding signal (z-score),[14],-0.285
same,glycan array binding signal (z-score),[15],0.109
same,glycan array binding signal (z-score),[16],-0.055
same,glycan array binding signal (z-score),[17],-0.148
same,glycan array binding signal (z-score),[18],0
same,glycan array binding signal (z-score),[19],1.76
same,glycan array binding signal (z-score),[20],0.006
same,glycan array binding signal (z-score),[21],-0.364
same,glycan array binding signal (z-score),[22],-0.381
same,glycan array binding signal (z-score),[23],-0.274
same,glycan array binding signal (z-score),[24],-0.016
same,glycan array binding signal (z-score),[25],-0.498
same,glycan array binding signal (z-score),[26],2.8
same,glycan array binding signal (z-score),[27],2.57
same,glycan array binding signal (z-score),[28],0.717
same,glycan array binding signal (z-score),[29],1.51
same,glycan array binding signal (z-score),[30],0.111
same,glycan array binding signal (z-score),[31],1.37
same,glycan array binding signal (z-score),[32],0.481
same,glycan array binding signal (z-score),[33],2.24

# 2 entries from above, with bars between the fields.
binder | measurement | setting | value
B1 | glycan array binding signal (z-score) | [1] | 0.059
same | glycan array binding signal (z-score) | Gal(b1-4)Glc | 0.03

# From the supplement of paper PMC8728848
